# Test results taken from PubChem BioAssay AID493014 (National Center for Advancing Translational Sciences (NCATS), 2011).
# The other results are listed elsewhere or left out. Shown are side measurements of this screen, not its main read-out; they come without a call. Compounds called inactive in the main read-out are mostly missing here. Potencies come from curve fits of mixed quality, noted in brackets.
# Assay: qHTS Assay to Find Inhibitors of Chronic Active B-Cell Receptor Signaling
# Settings: ABC-DLBCL IkBa-CBG/CBR reporter, luminescence ratio (green luciferase fused to IkBa over red control in TMD8 lymphoma cells), 4 h
# Method in brief: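 Cell line TMD8 (human ABC DLBCL), stably expressing tet-inducible CBG68-IkBa fusion and CBR; IMDM/0.5% FBS; cpd up to 46 uM; dox induction, 4 h, 37C/5% CO2; dual luminescence; green/red ratio; MG132 control.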
# [1] = measured here: CBR red luminescence, cell number
# [2] = measured here: IkBa-CBG green luminescence
SMILES,AC50 [1],AC50 [2]
COc1ccc2nc(C)cc(SCC(=O)N/N=C/c3ccc(O)cc3O)c2c1,"23.1 µM [falling, single point]",
O=C(C[n+]1cc(-c2ccc(Cl)cc2)n2c1CCCCC2)c1ccccc1,"2.82 µM [falling, full curve]",
CC(=O)OCCNc1cc(SCc2ccco2)c2nonc2c1[N+](=O)[O-],"16.4 µM [falling, partial curve, poor fit]",
COc1ccc(C(C)(C)C)cc1NC(=O)c1[nH]c(C)c(C(C)=O)c1C,"20 µM [rising, partial curve, poor fit]",
CN(C)/C=N/c1cc(=O)n(C)c(=O)n1Cc1ccccc1,"29.1 µM [rising, single point]","16.4 µM [falling, single point]"
Cc1cc2ccccc2nc1SCC(=O)N1c2ccccc2CC1C (stereo not drawn),"23.1 µM [rising, partial curve, poor fit]",
CCOc1ccc(NC(=O)CCN2C(=O)c3ccccc3C2=O)cc1,"0.891 µM [rising, full curve, poor fit]",
CCCC1=C(C(=O)OCC)C(c2cccs2)C(C#N)=C(N)O1 (stereo not drawn),"0.411 µM [falling, full curve, poor fit]",
Cc1c(O)ccc(/C=N/Nc2nc(-c3cccnc3)nc3ccccc23)c1O,"7.94 µM [falling, partial curve, poor fit]",
CNC(=O)c1[nH]cnc1C(=O)Nc1ccccc1,"3.66 µM [falling, partial curve, poor fit]",
Cc1ccc(N2CC(=O)N(NC(=O)c3sc4nc(C)cc(C)c4c3N)CC2=O)cc1,"0.794 µM [falling, full curve, poor fit]",
Cn1c(-c2ccccc2)cnc1N,"17.8 µM [rising, single point]",
O=c1[nH]c(CSc2cccc[n+]2[O-])nc2ccccc12,"35.5 µM [falling, single point]","35.5 µM [falling, single point]"
COC(=O)[C@H](CC(C)C)N1Cc2cc(OC)cc(OC)c2-c2ccccc2S1(=O)=O,"5.8 µM [rising, full curve, poor fit]",
COc1cc(C(=O)OCC(=O)NCCN2C(=O)CSC2=O)ccc1OCc1c(C)noc1C,"17.8 µM [rising, partial curve, poor fit]",
O=C(OCc1cnc(Cl)s1)c1cccc(Cl)c1Cl,"29.1 µM [rising, single point]",
O=C(Nc1cc(Cl)ccc1-n1cncn1)c1ccc([N+](=O)[O-])o1,"9.2 µM [falling, partial curve, poor fit]",
O=c1cc(-c2ccccc2)[nH]n1-c1ccc([N+](=O)[O-])cc1,"0.562 µM [rising, partial curve]",
COc1ccccc1-c1nnc2sc(COc3ccc(Cl)cc3Cl)nn12,"7.08 µM [falling, full curve, poor fit]",
O=C(NC1CCCC1)C1(c2ccccc2)CCN(S(=O)(=O)c2ccccc2)CC1,"2.31 µM [falling, partial curve, poor fit]",
Cc1cccn2c(=O)nc(SCC(=O)c3ccc(Cl)cc3)nc12,"29.1 µM [falling, single point]",
CCCC(=O)C1=C(c2cccc(OC)c2)N(C(=O)CCC)n2c(C)nnc2S1,"11.2 µM [falling, single point]",
Fc1ccc(SCCc2ccccn2)cc1,"35.5 µM [rising, single point]",
COc1ccc(NS(=O)(=O)c2cc3c4c(c2)CCN4C(=O)CC3)cc1OC,"2.31 µM [rising, single point]",
CCc1ccc(NC(=S)NC(=O)CC(C)C)cc1,"7.31 µM [rising, partial curve, poor fit]",
O=C(CC(Nc1ccccc1Cl)C(=O)O)c1ccccc1 (stereo not drawn),"35.5 µM [falling, single point]",
Cn1c(SCC(=O)Nc2ccccc2)nc(O)cc1=O,"14.1 µM [falling, partial curve]",
O=C(NN=C1C2CC3CC(C2)CC1C3)c1ccccc1O,"1.58 µM [falling, full curve]",
CCC(C)(C)NC(=O)C(c1ccccn1)N(C(=O)c1csnn1)c1ccc(C)cc1 (stereo not drawn),"10 µM [rising, partial curve, poor fit]",
O=C(COC(=O)c1ccc(Oc2ccccc2)cc1)Nc1nnc(-c2ccccc2)o1,"29.1 µM [rising, single point]","29.1 µM [falling, single point]"

# 3 structures out of the list, ordered by length of the SMILES, falling:
SMILES,AC50 [1],AC50 [2]
O=C(C[n+]1cc(-c2ccc(Cl)cc2)n2c1CCCCC2)c1ccccc1,"2.82 µM [falling, full curve]",
CCOc1ccc(NC(=O)CCN2C(=O)c3ccccc3C2=O)cc1,"0.891 µM [rising, full curve, poor fit]",
CN(C)/C=N/c1cc(=O)n(C)c(=O)n1Cc1ccccc1,"29.1 µM [rising, single point]","16.4 µM [falling, single point]"
